Assay results reported in article PMC5348399.
Where two headings read alike, the source gives them in different places. These are yes or no findings as the source states them, for the method shown. In cells and extracts the contact can be indirect. Some binding calls cover weakened binding; strength is not graded here. For some assays here: Sequences can lack the tags named with a protein. Each block holds one molecule with its values, some of them ahead of it.

Amino acid sequences for entries named in this document (tags omitted).
UniProt P10275: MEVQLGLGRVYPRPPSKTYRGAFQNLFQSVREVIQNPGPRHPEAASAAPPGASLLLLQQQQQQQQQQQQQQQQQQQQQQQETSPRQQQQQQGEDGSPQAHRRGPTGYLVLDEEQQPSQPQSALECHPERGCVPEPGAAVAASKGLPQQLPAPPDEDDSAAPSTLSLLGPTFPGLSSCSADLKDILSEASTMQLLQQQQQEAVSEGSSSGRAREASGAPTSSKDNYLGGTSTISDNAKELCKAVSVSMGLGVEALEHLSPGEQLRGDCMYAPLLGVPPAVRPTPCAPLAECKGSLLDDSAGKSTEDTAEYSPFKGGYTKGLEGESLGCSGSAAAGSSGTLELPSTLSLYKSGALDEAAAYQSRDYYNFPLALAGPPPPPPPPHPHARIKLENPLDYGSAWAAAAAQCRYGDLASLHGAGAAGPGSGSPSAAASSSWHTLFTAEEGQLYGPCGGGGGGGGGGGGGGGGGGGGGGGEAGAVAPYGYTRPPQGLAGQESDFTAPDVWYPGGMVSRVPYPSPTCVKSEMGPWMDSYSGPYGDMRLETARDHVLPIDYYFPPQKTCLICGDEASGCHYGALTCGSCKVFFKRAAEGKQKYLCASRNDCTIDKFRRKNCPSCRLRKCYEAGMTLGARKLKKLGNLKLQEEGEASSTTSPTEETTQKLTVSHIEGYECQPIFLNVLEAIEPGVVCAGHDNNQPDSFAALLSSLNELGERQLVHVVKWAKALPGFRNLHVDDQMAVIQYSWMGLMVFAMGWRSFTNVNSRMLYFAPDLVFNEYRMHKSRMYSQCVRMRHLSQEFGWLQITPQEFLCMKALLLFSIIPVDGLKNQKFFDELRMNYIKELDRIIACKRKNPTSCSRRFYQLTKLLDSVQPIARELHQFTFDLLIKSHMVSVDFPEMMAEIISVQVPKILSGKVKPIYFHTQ
UniProt Q9UNE7: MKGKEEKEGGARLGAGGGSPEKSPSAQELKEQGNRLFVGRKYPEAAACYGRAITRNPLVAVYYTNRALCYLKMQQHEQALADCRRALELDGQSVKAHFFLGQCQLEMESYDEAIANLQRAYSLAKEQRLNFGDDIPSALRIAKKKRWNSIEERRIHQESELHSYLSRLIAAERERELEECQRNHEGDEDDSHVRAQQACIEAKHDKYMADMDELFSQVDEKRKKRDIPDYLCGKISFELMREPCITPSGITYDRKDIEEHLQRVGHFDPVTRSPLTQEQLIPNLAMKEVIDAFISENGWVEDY

Legend:
[1] = biological target: endogenous AR (human (endogenous in LNCaP)) (UniProt P10275); experiment: co-IP; endogenous proteins; LNCaP and PC-1 overexpressing LNCaP-PC-1 lysates with 2 μg AR antibody and protein A/G-Sepharose at 4°C overnight, blot with anti-CHIP
[2] = biological target: Flag-CHIP (UniProt Q9UNE7); experiment: co-IP; HEK293 cells transiently transfected, lysed 48 h later in RIPA buffer; precipitated with anti-FLAG-M2 agarose beads, Western blot; AR with CHIP tested with and without co-expressed HA-PC-1
[3] = biological target: T1, Flag-PC-1 (human) (UniProt P55327); experiment: as above
T1 sequence: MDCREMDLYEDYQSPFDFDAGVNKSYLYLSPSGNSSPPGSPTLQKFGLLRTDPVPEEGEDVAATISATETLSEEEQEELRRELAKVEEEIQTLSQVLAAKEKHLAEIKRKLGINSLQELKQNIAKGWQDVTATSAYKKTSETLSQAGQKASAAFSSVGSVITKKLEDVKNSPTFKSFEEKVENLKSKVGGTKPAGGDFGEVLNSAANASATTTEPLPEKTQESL

[4] = biological target: GST-CHIP (UniProt Q9UNE7); experiment: pull-down; GST-PC-1 or GST-CHIP on glutathione beads incubated with lysates of transfected HEK293 cells at 4°C for 4-6 h, Western blot; AR with GST-CHIP tested with and without co-expressed HA-PC-1; only the target purified
[5] = biological target: T2, GST-PC-1 (human) (UniProt P55327); experiment: as above
T2 sequence: T1 sequence

[6] = biological target: Flag-CHIP (UniProt Q9UNE7); experiment: co-IP; HEK293 cells transiently transfected, lysed 48 h later in RIPA buffer; precipitated with anti-FLAG-M2 agarose beads, Western blot; AR with CHIP tested with and without co-expressed HA-PC-1; remark: listed apart in the source
[7] = biological target: GST-CHIP (UniProt Q9UNE7); experiment: pull-down; GST-PC-1 or GST-CHIP on glutathione beads incubated with lysates of transfected HEK293 cells at 4°C for 4-6 h, Western blot; AR with GST-CHIP tested with and without co-expressed HA-PC-1; only the target purified; remark: listed apart in the source

- binding [1]: binds
Molecule: endogenous CHIP (from UniProt Q9UNE7 1-303) (enzyme)

- binding [2]: binds
- binding [3]: binds
- binding [4]: binds
- binding [5]: binds
Molecule: Myc-AR (from UniProt P10275 1-920) (receptor)

- binding [3]: binds
Molecule: Myc-CHIP (from UniProt Q9UNE7 1-303) (enzyme)

- binding [6]: binds
- binding [7]: binds
B1: HA-PC-1 (protein, UniProt P55327 1-224)
chain: T1 sequence
